In all, about 78,000 compounds went through this assay and about 1,800 (2.3%) were called active. This list was built around the results that the source calls inconclusive (neither active nor inactive); the mix of calls is not that of the screen. No stated cut-off is given here; in the data, active means inhibition above about 30%; inconclusive means mostly about 10% to 28%; inactive means weaker than that.
target: Interleukin-1 receptor-like 1 (Homo sapiens) (UniProt Q01638); assay: blocks human ST2 binding to IL-33, primary screen, biochemical, AlphaLISA (AID 1259354); conditions: AlphaLISA ST2-Fc/biotin-IL-33 interaction, 1 h; at 17 µM, stronger effect = higher value

Sequences of proteins named here, by UniProt entry; tags and fusion partners are left off. A change or cut given only in a name is not applied to a line headed by its entry.
UniProt Q01638: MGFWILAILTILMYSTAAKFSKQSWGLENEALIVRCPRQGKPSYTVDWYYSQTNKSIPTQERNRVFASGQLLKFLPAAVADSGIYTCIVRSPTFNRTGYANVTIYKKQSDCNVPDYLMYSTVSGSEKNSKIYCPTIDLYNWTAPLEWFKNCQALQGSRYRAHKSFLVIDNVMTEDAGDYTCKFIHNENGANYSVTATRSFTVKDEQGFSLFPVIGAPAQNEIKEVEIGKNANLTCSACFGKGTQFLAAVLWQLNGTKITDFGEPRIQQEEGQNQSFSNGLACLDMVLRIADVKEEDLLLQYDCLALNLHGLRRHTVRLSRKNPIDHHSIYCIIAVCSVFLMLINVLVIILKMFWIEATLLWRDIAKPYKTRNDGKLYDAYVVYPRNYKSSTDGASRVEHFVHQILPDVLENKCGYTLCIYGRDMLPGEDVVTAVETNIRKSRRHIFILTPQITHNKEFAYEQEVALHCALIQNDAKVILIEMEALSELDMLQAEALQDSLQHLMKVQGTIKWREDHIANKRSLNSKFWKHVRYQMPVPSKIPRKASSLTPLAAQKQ

Compound	inhibition
COc1ccc(C(=O)N2CCC(n3nccc3NC(=O)c3ccccc3C)CC2)o1	inconclusive: 19%
FC(F)(F)c1cccnc1N1CCN(Cc2nc3ncccn3c2Br)CC1	inconclusive: 22%
CCn1c(C2CCCN(C(=O)CCc3c(C)nn(C)c3C)C2)nn(C)c1=O (stereo unspecified)	inconclusive: 10%
COc1cccc(-n2cc(CN(C)Cc3cc4ccccc4[nH]3)cn2)c1	inconclusive: 13%
CCN(Cc1ccnc2ccccc12)CC1CCCO1 (stereo unspecified)	inactive
OCC1=CC[C@@H]2C=CO[C@@H](O[C@@H]3O[C@H](CO)[C@@H](O)[C@H](O)[C@H]3O)[C@H]12	inconclusive: 13%
Cc1ccc(O)c(N=Nc2ccccc2)n1	inconclusive: 17%
CCN(CC)c1ccc(C2C(C#N)=C(N)Oc3n[nH]c(C)c32)cc1 (stereo unspecified)	inactive
CCc1nnc(CN(C(=O)c2oc3cc(OC)ccc3c2C)C(C)C)o1	inconclusive: 10%
O=C(c1ccc2nc3ccc(Cl)cc3c(=O)n2c1)N1CCCCCC1	inconclusive: 12%
CCOc1cc2occ(Oc3ccccc3)c(=O)c2cc1CC	inconclusive: 24%
CC(=O)N(CN1C(=O)C2CCCCC2C1=O)c1ccccc1C (stereo unspecified)	inactive
CC1=C(C(=O)Nc2ccccn2)C(c2ccc3c(c2)OCO3)C2=C(CCCC2=O)N1 (stereo unspecified)	inactive
O=C(NC1CC(=O)N(c2cccc(F)c2)C1)C1CC1 (stereo unspecified)	inconclusive: 29%
O=C(Nc1ccccc1-c1nc2ccccc2s1)c1cccc(F)c1	inconclusive: 15%
COc1nc(-c2ccc(Cl)cc2)nc2ccccc12	inactive
CCC1Oc2ccccc2N(CC(=O)NCCN(CC)c2ccccc2)C1=O (stereo unspecified)	inconclusive: 17%
CCN(C/C=C/c1ccccc1)C(=O)c1c(C)nn(CC)c1C	inactive
Cc1cc(N2CC(C)CC(C)C2)nc2ccc(NC(=O)CCC(=O)N3CCOCC3)cc12 (stereo unspecified)	inconclusive: 10%
CCN1C(=O)NC(=O)/C(=C\c2cn(CCOc3ccc(F)cc3)c3ccccc23)C1=O	inconclusive: 29%
CN(CCc1ccccn1)Cc1cnc2c(-c3ccccc3)cnn2c1	inconclusive: 13%
O=[N+]([O-])c1ccc(O)c(/C=C/c2ccc3cccc(O)c3n2)c1	inconclusive: 21%
O=C(Nc1nc(-c2ccc(Cl)cc2Cl)cs1)c1ccco1	inconclusive: 10%
CN(Cc1nc(-c2cnccn2)no1)CC1(N2CCOCC2)CCCCC1	inconclusive: 18%
O=C1CCCC2=C1C(c1ccccn1)Nc1ccc(C(=O)c3ccccc3)cc1N2 (stereo unspecified)	inconclusive: 13%
Nc1nc2ccc(OC(F)(F)F)cc2s1	inconclusive: 14%

Molecules above that contain a CF3 group (2):
Compound	inhibition
FC(F)(F)c1cccnc1N1CCN(Cc2nc3ncccn3c2Br)CC1	inconclusive: 22%
Nc1nc2ccc(OC(F)(F)F)cc2s1	inconclusive: 14%
